Measurements: article PMC11358005
Results are given in words; binding and its absence hold for the method and conditions named. Binding seen in cells or lysates may run through a third protein. Some entries that bind do so weakly or less than the wild type. Where a sequence is shown, tags or fusion partners need not be part of it.

The chains behind the UniProt entries cited, without tags or fusion partners. Residues count along the entry.
UniProt P06213, residues 28-1382: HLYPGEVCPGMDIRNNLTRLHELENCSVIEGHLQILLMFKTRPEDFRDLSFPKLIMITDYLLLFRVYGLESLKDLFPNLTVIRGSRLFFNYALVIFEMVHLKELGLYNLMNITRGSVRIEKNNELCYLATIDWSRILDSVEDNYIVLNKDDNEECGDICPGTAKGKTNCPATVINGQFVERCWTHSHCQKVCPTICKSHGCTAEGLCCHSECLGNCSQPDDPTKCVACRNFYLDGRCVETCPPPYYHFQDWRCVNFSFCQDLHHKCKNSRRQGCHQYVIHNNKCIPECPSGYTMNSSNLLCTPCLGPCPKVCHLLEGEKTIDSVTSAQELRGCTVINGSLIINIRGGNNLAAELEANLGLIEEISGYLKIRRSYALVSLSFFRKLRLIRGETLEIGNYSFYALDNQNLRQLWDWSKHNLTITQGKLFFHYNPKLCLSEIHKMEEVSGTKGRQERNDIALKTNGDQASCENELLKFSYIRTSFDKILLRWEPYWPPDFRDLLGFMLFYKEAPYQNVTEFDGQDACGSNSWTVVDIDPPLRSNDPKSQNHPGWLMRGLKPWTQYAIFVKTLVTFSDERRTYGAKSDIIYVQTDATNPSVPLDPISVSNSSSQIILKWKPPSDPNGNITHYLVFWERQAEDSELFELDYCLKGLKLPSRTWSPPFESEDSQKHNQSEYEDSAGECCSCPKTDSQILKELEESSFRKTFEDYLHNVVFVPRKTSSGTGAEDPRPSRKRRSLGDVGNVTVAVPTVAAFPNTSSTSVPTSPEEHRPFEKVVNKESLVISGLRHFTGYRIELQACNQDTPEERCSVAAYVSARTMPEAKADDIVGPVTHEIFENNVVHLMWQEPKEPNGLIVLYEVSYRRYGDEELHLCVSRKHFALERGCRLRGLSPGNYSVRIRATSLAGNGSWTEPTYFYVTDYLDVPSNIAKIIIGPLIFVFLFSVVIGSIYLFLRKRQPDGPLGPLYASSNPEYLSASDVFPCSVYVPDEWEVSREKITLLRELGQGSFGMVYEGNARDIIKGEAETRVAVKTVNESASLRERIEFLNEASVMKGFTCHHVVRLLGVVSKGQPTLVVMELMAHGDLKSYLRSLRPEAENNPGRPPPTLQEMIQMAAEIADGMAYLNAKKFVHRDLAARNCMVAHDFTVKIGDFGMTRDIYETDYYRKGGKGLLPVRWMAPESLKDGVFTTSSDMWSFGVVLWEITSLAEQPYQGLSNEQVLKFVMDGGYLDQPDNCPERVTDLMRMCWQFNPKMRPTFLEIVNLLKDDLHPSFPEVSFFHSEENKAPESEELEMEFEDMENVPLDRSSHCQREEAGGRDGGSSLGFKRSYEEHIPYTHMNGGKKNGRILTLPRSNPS
UniProt P35568: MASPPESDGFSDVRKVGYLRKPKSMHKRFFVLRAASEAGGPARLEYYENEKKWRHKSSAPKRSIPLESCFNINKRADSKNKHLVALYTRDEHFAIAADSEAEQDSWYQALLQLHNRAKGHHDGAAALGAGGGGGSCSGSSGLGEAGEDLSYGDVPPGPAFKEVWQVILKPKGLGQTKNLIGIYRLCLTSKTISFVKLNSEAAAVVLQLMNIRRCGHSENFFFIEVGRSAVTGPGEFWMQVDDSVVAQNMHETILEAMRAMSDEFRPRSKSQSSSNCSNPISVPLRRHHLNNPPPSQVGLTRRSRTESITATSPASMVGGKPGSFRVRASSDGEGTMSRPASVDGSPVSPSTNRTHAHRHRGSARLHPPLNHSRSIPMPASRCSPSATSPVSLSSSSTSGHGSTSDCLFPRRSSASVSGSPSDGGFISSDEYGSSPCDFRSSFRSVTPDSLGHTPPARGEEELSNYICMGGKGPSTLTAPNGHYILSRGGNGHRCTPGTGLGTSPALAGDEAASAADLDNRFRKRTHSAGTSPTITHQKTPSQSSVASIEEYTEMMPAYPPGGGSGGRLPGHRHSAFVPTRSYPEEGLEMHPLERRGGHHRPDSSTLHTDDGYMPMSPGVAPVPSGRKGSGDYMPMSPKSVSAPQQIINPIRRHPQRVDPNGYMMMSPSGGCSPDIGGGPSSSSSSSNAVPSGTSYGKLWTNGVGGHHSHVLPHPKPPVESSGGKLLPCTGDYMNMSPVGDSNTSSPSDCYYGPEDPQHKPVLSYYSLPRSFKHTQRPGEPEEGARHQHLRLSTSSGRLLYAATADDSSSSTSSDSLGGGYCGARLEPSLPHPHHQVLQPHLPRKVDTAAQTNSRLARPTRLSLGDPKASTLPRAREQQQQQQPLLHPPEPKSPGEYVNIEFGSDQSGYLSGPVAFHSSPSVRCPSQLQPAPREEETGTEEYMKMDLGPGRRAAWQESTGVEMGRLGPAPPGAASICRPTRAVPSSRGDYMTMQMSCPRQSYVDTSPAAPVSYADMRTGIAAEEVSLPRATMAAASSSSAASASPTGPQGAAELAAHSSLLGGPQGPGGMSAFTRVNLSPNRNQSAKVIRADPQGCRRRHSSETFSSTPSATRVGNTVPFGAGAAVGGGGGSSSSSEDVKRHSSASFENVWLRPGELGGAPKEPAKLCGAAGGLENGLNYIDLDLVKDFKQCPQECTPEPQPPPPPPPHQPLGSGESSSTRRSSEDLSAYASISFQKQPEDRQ

T1: histidine-tagged WT IGFBP7 (Ad-WT IGFBP7-6xHis) (human) (UniProt Q16270)
T1 sequence: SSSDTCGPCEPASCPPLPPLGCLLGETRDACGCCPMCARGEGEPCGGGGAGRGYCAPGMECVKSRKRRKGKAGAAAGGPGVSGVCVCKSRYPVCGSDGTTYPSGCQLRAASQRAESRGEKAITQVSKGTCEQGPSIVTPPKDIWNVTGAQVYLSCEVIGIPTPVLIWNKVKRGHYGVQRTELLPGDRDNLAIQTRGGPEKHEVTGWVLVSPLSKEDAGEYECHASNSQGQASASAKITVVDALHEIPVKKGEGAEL


What was measured:
[1] = molecular target: T1, histidine-tagged WT IGFBP7 (Ad-WT IGFBP7-6xHis) (human); assay: co-IP; AC16 cells infected with 6xHis-tagged IGFBP7 adenovirus (WT or deletion forms) for 48 hours, lysed in pulldown buffer; His-tagged IGFBP7 held on Dynabeads (His-Tag Isolation & Pulldown; 'anti-6xHis Dynabeads'), eluted with His-Elution Buffer, immunoblot
[2] = molecular target: insulin receptor (IR) (human (endogenous in AC16)) (UniProt P06213); assay: co-IP; reverse IP: IR precipitated from lysate of Ad-hIGFBP-6xHis-infected AC16 cells with INSR mAb (18-44) and Dynabeads Protein G, immunoblot

Row | Molecule | binding [1] | binding [2]
1 | insulin receptor (IR) (from UniProt P06213 28-1382) | binds | 
2 | insulin receptor substrate IRS1 (from UniProt P35568 1-1242) | binds | 
3 | insulin receptor substrate IRS2 (protein, UniProt Q9Y4H2 1-1338) MASPPRHGPPGPASGDGPNLNNNNNNNNHSVRKCGYLRKQKHGHKRFFVLRGPGAGGDEATAGGGSAPQPPRLEYYESEKKWRSKAGAPKRVIALDCCLNINKRADAKHKYLIALYTKDEYFAVAAENEQEQEGWYRALTDLVSEGRAAAGDAPPAAAPAASCSASLPGALGGSAGAAGAEDSYGLVAPATAAYREVWQVNLKPKGLGQSKNLTGVYRLCLSARTIGFVKLNCEQPSVTLQLMNIRRCGHSDSFFFIEVGRSAVTGPGELWMQADDSVVAQNIHETILEAMKALKELFEFRPRSKSQSSGSSATHPISVPGARRHHHLVNLPPSQTGLVRRSRTDSLAATPPAAKCSSCRVRTASEGDGGAAAGAAAAGARPVSVAGSPLSPGPVRAPLSRSHTLSGGCGGRGSKVALLPAGGALQHSRSMSMPVAHSPPAATSPGSLSSSSGHGSGSYPPPPGPHPPLPHPLHHGPGQRPSSGSASASGSPSDPGFMSLDEYGSSPGDLRAFCSHRSNTPESIAETPPARDGGGGGEFYGYMTMDRPLSHCGRSYRRVSGDAAQDLDRGLRKRTYSLTTPARQRPVPQPSSASLDEYTLMRATFSGSAGRLCPSCPASSPKVAYHPYPEDYGDIEIGSHRSSSSNLGADDGYMPMTPGAALAGSGSGSCRSDDYMPMSPASVSAPKQILQPRAAAAAAAAVPSAGPAGPAPTSAAGRTFPASGGGYKASSPAESSPEDSGYMRMWCGSKLSMEHADGKLLPNGDYLNVSPSDAVTTGTPPDFFSAALHPGGEPLRGVPGCCYSSLPRSYKAPYTCGGDSDQYVLMSSPVGRILEEERLEPQATPGPSQAASAFGAGPTQPPHPVVPSPVRPSGGRPEGFLGQRGRAVRPTRLSLEGLPSLPSMHEYPLPPEPKSPGEYINIDFGEPGARLSPPAPPLLASAASSSSLLSASSPASSLGSGTPGTSSDSRQRSPLSDYMNLDFSSPKSPKPGAPSGHPVGSLDGLLSPEASSPYPPLPPRPSASPSSSLQPPPPPPAPGELYRLPPASAVATAQGPGAASSLSSDTGDNGDYTEMAFGVAATPPQPIAAPPKPEAARVASPTSGVKRLSLMEQVSGVEAFLQASQPPDPHRGAKVIRADPQGGRRRHSSETFSSTTTVTPVSPSFAHNPKRHNSASVENVSLRKSSEGGVGVGPGGGDEPPTSPRQLQPAPPLAPQGRPWTPGQPGGLVGCPGSGGSPMRRETSAGFQNGLNYIAIDVREEPGLPPQPQPPPPPLPQPGDKSSWGRTRSLGGLISAVGVGSTGGGCGGPGPGALPPANTYASIDFLSHHLKEATIVKE | binds | 
4 | histidine-tagged WT IGFBP7 (Ad-WT IGFBP7-6xHis) (protein, UniProt Q16270-1 27-282) SSSDTCGPCEPASCPPLPPLGCLLGETRDACGCCPMCARGEGEPCGGGGAGRGYCAPGMECVKSRKRRKGKAGAAAGGPGVSGVCVCKSRYPVCGSDGTTYPSGCQLRAASQRAESRGEKAITQVSKGTCEQGPSIVTPPKDIWNVTGAQVYLSCEVIGIPTPVLIWNKVKRGHYGVQRTELLPGDRDNLAIQTRGGPEKHEVTGWVLVSPLSKEDAGEYECHASNSQGQASASAKITVVDALHEIPVKKGEGAEL |  | binds
